# The list shows a part of the results, in another mix than the full data. Activity calls are given as the source filed them.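 How the source made its calls: active means compound fluorescence over control fluorescence at most 0.8, a quencher, or at least a set upper limit, an enhancer; inactive means ratio between 0.8 and the set upper limit.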
# Assay: fluorescence interference in NS3h DNA assay – biochemical, ChemBridge library, Cy5 readout, artefact control for HCV NS3 helicase inhibitor project (AID 720488)
# Conditions: Cy5-dT15 DNA with NS3h, at 100 µM, actives lie on both sides, signal over control mean, under 1 quenches
row,SMILES,fluorescence interference ratio
1,O=C(/C=C/c1ccccc1)Nc1cccc(F)c1,active: 0.703
2,O=C(/C=C/c1ccccc1)Nc1ccc(F)cc1,active: 0.686

# Source: PubChem BioAssay AID720488 (Milwaukee Institute for Drug Discovery, 2013)
